This experiment has as its target SBP- and Flag-tagged KDM5C (human) (UniProt P41229). Briefly: affinity purification with mass spectrometry; tandem affinity purification from HEK293T cells stably expressing SBP-Flag-KDM5C: IP lysis buffer, strep beads overnight at 4 °C, biotin elution, anti-Flag magnetic beads, SDS-PAGE, mass spectrometry.

Protein sequences, listed by entry. Tags and fused reporters are not part of them.
UniProt P41229: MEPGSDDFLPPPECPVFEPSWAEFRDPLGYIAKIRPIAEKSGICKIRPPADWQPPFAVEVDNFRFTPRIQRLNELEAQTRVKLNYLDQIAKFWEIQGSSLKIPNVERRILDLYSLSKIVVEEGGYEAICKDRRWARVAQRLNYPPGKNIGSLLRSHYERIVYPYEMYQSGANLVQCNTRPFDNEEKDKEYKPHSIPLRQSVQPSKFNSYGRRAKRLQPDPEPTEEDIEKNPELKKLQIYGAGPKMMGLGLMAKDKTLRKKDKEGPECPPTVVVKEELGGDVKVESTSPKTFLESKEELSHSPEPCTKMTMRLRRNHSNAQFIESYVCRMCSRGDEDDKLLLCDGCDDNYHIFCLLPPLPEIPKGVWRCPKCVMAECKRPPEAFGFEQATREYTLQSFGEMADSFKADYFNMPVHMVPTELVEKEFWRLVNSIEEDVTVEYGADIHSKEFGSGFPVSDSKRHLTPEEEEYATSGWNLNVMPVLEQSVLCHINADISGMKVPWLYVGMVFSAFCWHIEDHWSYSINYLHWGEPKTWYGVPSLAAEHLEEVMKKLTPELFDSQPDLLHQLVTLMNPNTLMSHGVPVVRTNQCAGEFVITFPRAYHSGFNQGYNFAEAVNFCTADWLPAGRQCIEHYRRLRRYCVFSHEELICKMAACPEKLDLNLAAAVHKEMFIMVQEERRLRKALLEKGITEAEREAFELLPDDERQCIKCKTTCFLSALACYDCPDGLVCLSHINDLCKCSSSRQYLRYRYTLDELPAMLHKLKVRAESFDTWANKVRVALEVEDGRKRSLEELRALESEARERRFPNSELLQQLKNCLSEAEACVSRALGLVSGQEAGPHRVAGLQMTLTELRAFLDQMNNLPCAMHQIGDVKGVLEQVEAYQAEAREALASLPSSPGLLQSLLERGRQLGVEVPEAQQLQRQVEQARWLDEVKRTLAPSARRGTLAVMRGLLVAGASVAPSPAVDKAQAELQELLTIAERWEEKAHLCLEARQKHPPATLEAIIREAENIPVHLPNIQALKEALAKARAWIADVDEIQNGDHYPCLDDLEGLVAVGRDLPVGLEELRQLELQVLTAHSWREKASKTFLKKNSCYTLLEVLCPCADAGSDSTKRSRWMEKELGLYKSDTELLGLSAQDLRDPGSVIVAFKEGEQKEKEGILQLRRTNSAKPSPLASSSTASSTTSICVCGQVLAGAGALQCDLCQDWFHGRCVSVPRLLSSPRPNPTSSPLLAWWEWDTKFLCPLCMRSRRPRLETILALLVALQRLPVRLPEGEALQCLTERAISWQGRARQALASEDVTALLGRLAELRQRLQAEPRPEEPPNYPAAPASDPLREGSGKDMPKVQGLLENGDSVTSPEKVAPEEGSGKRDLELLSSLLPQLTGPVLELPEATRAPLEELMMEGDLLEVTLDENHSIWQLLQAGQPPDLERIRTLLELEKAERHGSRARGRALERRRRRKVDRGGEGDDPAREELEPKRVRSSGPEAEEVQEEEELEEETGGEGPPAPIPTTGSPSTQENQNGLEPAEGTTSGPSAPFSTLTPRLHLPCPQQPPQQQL
UniProt P25490: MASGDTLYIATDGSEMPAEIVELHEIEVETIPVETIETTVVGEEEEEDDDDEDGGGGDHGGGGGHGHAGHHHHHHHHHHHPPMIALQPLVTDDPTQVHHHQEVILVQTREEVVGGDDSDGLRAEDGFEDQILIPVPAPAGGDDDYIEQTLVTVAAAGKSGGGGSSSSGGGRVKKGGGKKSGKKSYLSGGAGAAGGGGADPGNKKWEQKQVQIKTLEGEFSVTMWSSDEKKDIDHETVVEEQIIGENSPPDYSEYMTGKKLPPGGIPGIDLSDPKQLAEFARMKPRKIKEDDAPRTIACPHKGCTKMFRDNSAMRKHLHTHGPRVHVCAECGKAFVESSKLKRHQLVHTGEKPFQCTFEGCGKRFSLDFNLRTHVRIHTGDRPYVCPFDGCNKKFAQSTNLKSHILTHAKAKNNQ

These are yes or no findings as the source states them, for the method shown. Binding seen in cells or lysates may run through a third protein. These calls come from enrichment with a bait or labelling near it, and not all partners need be listed.

For the substance “Yin Yang 1 (YY1), endogenous in HEK293T cells (from UniProt P25490 1-414)”, the binding entry is listed as “binds”.

The record behind these values is publication PMC11624269.
